Test results from patent US20150038677 (published 2015).

Assay: general procedure: solution-phase peptide synthesis; EDC.HCl/HOBt

Substance | step yield (late stage modification step) [%] | step yield (coupling step) [%]
(1S,3aR,6aS)-2-((S)-2-((S)-2-cyclohexyl-2-(pyrazine-2-carboxamido)acetamido)-3,3-dimethylbutanoyl)-N-((S)-1-(cyclopropylamino)-1,2-dioxohexan-3-yl)octahydrocyclopenta[c]pyrrole-1-carboxamide (Telaprevir) | 71 | –
(1S,3aR,6aS)-2-((S)-2-((S)-2-cyclohexyl-2-(pyrazine-2-carboxamido)acetamido)-3,3-dimethylbutanoyl)-N-((S)-1-(cyclopropylamino)-2-hydroxy-1-oxohexan-3-yl)octahydrocyclopenta[c]pyrrole-1-carboxamide | – | 94
